These are yes or no findings as the source states them, for the method shown. In cells and extracts the contact can be indirect. Some results given as binding are weak or reduced against the parent protein; the word gives no strength. Sequences can lack the tags named with a protein.
Target: T1, ARF19 BiFC fusion (nEYFP-ARF19 and cEYFP-ARF19) (Arabidopsis thaliana), Q8RYC8
T1 chain: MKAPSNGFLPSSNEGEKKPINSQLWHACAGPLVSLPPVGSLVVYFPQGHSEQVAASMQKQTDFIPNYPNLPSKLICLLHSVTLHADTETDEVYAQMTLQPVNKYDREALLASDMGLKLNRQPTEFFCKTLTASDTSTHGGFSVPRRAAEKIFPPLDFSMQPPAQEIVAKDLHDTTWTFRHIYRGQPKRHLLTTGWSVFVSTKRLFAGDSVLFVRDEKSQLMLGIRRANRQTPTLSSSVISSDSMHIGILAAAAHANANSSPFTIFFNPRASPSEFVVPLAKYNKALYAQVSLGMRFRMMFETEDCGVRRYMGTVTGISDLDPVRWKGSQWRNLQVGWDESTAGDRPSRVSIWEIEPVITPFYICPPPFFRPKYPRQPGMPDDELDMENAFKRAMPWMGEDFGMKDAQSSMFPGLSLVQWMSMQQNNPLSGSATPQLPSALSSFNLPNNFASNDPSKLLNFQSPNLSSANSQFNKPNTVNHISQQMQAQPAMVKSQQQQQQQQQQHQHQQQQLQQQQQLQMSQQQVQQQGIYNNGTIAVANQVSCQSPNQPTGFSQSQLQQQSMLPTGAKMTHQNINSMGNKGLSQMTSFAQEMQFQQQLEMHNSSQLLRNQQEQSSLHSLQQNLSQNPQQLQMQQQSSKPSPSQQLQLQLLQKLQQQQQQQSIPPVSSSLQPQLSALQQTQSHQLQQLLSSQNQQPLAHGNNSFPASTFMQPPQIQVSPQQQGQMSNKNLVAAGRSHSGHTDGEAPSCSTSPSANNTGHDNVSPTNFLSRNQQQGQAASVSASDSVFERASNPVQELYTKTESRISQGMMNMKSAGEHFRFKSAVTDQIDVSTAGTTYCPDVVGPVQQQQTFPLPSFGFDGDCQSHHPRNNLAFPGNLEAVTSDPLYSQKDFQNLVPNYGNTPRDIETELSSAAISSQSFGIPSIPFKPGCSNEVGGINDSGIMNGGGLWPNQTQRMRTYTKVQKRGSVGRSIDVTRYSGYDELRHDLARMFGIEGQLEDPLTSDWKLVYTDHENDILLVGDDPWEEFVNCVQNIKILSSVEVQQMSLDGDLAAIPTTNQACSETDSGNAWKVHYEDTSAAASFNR
Experiment: split reporter
Conditions: remark: other sources report otherwise

- binding: binds
B1: ARF19 BiFC fusion (nEYFP-ARF19 and cEYFP-ARF19), Q8RYC8 1-1086 (protein)
chain: T1 chain
